The supplement of paper PMC10849652
Some of the results follow.

Protein sequences, listed by entry. Tags and fused reporters are not part of them. Lines headed by an entry give the natural chain unless they say otherwise; changes in a name come on top.
UniProt Q9NRX1: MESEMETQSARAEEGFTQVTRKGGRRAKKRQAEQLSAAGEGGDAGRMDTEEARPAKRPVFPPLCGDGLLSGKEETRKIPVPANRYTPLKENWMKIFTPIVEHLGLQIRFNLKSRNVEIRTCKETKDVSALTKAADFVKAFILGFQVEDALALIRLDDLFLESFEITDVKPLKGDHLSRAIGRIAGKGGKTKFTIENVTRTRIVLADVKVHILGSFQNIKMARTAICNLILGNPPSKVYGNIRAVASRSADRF
UniProt Q9H8W4: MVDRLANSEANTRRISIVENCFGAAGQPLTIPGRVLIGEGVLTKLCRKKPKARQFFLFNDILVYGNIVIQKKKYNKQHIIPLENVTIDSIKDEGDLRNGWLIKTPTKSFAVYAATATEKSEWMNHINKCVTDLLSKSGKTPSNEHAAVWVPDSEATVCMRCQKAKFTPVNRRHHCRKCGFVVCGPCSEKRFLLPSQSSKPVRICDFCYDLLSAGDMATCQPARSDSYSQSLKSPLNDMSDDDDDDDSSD
UniProt O15305: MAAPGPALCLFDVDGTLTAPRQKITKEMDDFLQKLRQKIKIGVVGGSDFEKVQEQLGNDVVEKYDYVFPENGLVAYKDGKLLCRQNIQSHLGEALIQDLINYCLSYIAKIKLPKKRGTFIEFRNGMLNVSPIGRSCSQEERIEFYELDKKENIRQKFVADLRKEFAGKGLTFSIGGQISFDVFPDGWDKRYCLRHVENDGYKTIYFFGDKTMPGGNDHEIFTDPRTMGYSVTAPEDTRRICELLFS
UniProt P09884: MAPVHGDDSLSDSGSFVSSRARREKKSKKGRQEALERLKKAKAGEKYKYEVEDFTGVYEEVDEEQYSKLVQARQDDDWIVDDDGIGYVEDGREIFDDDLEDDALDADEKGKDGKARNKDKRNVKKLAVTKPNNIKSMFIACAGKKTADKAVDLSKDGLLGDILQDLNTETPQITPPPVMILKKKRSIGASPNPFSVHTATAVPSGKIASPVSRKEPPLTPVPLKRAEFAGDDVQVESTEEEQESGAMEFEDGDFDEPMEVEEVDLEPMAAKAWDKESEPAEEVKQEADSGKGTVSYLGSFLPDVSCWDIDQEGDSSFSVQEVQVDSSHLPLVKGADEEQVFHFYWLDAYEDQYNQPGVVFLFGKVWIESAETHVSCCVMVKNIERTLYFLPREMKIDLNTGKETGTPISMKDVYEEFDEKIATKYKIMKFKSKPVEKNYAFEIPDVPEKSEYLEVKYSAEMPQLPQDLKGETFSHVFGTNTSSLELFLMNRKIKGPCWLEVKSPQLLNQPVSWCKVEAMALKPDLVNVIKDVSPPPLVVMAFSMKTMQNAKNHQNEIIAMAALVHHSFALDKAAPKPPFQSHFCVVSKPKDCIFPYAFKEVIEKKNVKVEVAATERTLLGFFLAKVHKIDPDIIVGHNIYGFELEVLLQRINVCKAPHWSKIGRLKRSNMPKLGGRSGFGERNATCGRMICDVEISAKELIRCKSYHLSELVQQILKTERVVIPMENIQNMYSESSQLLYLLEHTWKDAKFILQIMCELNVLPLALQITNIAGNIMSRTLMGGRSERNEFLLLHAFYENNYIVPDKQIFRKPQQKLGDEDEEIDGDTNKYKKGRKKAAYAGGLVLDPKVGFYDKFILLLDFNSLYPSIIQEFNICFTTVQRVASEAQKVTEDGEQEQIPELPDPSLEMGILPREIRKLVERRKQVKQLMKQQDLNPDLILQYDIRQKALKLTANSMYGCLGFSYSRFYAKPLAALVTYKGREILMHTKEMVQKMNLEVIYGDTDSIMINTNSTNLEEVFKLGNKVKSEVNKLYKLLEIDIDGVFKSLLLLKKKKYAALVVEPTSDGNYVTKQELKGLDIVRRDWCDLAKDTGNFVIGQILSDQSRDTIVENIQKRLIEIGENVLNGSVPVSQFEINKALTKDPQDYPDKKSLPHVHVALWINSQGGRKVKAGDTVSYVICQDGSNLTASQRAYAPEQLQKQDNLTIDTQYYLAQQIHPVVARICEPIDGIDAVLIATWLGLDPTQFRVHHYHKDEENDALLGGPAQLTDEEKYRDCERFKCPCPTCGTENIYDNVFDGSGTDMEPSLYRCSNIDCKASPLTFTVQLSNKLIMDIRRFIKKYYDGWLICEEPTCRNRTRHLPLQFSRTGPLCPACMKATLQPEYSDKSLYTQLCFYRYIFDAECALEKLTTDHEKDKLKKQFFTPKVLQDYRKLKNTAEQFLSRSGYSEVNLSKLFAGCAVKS
UniProt P0CG38, whole entry, looked up: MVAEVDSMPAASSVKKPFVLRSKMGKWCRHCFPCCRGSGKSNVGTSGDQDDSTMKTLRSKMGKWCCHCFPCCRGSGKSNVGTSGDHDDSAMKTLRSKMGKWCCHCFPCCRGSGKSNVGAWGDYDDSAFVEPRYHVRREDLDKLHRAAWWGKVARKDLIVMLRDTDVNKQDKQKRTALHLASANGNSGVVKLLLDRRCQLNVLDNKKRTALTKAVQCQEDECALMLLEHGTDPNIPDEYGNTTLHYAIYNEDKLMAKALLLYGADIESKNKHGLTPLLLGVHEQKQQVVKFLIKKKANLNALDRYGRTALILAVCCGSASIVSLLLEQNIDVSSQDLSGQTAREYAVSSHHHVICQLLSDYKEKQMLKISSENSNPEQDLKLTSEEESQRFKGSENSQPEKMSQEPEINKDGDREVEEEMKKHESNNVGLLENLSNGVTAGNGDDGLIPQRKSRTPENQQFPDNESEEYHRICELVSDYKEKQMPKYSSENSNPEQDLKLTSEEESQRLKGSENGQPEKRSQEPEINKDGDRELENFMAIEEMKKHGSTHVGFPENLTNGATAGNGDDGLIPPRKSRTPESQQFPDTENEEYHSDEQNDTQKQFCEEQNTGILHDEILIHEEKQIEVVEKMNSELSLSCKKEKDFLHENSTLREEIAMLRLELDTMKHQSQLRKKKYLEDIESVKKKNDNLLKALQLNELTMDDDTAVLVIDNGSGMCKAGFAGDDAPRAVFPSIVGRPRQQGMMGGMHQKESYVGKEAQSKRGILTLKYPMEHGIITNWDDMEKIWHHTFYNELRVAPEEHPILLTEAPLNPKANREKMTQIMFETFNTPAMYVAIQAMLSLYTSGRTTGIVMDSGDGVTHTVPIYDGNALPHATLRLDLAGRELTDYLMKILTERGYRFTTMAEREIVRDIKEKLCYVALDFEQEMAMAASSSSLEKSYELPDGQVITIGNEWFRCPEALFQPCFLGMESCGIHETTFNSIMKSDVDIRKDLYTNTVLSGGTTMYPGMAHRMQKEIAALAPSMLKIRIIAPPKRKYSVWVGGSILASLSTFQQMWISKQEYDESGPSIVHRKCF
UniProt O15160, whole entry, looked up: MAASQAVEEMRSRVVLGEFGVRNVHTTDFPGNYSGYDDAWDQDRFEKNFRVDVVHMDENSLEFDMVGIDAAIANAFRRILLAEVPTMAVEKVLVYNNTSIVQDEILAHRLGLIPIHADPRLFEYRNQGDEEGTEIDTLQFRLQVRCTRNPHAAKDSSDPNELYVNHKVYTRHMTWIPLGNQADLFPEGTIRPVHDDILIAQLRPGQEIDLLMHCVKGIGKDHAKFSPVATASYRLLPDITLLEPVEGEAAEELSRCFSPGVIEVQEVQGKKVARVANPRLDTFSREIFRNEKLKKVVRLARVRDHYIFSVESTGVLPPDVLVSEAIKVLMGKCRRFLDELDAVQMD
UniProt Q9Y244: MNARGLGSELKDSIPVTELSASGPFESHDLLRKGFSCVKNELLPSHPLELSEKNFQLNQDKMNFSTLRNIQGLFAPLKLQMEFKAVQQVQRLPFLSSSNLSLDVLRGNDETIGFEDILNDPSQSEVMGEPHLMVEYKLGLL
UniProt Q9NRF9: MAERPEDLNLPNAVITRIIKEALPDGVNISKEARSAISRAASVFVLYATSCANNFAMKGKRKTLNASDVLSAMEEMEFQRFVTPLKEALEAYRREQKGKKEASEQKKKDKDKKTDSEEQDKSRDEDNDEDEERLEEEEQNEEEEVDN
UniProt Q06203, whole entry, looked up: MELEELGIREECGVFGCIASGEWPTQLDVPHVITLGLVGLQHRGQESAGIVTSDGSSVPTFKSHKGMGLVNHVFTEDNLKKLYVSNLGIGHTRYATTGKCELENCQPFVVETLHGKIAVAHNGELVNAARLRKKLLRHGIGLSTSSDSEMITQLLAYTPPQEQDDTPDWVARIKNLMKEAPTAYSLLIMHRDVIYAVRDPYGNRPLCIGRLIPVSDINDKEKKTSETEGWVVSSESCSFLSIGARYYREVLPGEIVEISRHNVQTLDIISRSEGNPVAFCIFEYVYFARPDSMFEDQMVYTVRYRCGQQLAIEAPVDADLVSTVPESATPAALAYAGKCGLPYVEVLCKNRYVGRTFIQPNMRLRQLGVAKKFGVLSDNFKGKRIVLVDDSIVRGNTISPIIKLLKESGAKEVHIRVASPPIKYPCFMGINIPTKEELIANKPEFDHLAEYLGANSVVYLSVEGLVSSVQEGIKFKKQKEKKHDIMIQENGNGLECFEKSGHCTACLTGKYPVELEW
UniProt Q8NBL1: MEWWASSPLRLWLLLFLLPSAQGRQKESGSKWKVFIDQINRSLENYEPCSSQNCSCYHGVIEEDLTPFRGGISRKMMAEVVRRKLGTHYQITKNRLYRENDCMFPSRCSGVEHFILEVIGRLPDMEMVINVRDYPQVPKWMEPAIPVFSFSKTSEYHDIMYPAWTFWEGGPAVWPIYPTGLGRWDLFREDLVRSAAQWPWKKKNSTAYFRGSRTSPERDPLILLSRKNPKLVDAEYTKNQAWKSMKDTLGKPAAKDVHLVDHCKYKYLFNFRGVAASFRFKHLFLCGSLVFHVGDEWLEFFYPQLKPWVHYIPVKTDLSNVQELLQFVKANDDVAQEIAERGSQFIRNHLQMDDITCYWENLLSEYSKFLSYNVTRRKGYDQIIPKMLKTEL
UniProt Q15054: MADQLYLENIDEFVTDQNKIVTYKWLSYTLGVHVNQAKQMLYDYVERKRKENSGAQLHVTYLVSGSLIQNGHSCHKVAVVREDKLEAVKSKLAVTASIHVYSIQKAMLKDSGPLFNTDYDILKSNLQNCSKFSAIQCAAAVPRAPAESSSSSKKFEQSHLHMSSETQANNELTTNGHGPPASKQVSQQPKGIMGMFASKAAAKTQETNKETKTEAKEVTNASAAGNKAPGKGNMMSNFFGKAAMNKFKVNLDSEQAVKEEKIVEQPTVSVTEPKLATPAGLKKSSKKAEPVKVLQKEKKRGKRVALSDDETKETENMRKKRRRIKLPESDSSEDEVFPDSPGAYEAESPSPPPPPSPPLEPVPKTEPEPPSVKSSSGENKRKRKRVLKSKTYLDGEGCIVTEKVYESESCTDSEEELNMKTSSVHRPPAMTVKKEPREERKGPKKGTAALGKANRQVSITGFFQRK
UniProt Q02809: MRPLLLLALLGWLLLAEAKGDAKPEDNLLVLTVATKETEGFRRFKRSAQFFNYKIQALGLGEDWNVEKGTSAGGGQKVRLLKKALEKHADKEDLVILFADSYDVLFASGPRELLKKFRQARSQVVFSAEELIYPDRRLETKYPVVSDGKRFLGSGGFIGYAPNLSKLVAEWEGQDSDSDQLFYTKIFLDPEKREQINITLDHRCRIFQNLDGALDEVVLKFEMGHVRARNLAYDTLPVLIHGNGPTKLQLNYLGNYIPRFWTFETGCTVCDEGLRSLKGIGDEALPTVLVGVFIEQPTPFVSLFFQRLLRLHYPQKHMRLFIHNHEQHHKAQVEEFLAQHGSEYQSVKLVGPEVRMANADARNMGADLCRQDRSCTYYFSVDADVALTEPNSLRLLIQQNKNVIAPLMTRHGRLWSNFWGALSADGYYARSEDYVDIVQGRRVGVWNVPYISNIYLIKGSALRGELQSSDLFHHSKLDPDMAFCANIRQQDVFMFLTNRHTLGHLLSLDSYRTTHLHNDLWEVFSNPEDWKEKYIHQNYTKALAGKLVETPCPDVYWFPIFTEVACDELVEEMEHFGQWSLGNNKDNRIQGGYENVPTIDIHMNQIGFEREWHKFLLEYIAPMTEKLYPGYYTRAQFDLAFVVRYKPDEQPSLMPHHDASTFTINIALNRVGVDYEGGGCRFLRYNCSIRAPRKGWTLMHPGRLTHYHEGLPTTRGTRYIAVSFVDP
UniProt Q6UW63: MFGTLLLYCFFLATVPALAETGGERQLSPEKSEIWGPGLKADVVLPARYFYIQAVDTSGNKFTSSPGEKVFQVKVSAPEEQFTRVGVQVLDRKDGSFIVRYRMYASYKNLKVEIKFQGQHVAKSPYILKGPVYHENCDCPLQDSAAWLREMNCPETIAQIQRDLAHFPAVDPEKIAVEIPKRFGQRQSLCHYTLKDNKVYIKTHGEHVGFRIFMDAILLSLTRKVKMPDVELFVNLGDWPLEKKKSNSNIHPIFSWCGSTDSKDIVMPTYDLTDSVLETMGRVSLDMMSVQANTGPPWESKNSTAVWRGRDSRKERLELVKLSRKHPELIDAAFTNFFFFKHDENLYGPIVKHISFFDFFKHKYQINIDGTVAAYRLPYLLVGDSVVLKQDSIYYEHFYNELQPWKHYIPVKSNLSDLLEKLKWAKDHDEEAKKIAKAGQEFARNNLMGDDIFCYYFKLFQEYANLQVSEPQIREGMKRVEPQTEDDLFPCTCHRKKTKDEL

What was measured:
Test in all cases: log2 fold change, soluble protein after heating vs DMSO (PISA); higher = thermal stabilisation; K562 cells, 10 uM, 30 min; active = over 0.2 and 3.5 SD of the protein, either way, in both replicates (recomputed)
[1] = compound: CC1=C(C=C(C=C1)NC(=O)C2=CC(=CC=C2)C(C)(C)C#N)NC3=CC4=C(C=C3)N=CN(C4=O)C
Outline: (§1)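 K562 cells at 2×10^6 cells/mL were exposed to 10 μM compound for 30 min, then aliquots were heated for 3 min across 48°C-58°C, pooled, and extracted in PBS containing 0.5% NP-40 at 4°C. The supernatant after 21,000xg for 90 min was taken as soluble protein and measured by TMTpro 16plex LC-MS/MS with channel sums equalised. Thermal stability is reported relative to control samples, with values from duplicates. Fold changes are given on a log2 scale.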

[2] = compound: CC1=C(C=C(C=C1)NC(=O)C2=CC(=CC=C2)N(C)C)NC(=O)C3=CC=C(C=C3)O
Outline: as §1

[3] = compound: CC1=CC=C(C=C1)SC2=C3C=C(SC3=CN=C2)C(=O)N
Outline: as §1

[4] = compound: CC1=NC(=CC=C1)C2=C(N=C(N2)C(C)(C)C)C3=CC4=NC=CN=C4C=C3
Outline: as §1

[5] = compound: CCCCN(Cc1ccc(C(=O)NO)cc1)C(=O)Nc1ccccc1 [Nexturastat A]
Outline: as §1

[6] = compound: CCCS(=O)(=O)Nc1ccc(F)c(C(=O)c2c[nH]c3ncc(-c4ccc(Cl)cc4)cc23)c1F [vemurafenib]
Outline: as §1

[7] = compound: CCCS(=O)(=O)Nc1ccc(F)c(C(=O)c2c[nH]c3ncc(Cl)cc23)c1F
Outline: as §1

[8] = compound: CCCc1cc(C)[nH]c(=O)c1CNC(=O)c1cc(-c2ccnc(N3CCN(C)CC3)c2)cc2c1cnn2C(C)C
Outline: as §1

[9] = compound: CCN(CC)Cc1ccc2cc(COC(=O)Nc3ccc(C(=O)NO)cc3)ccc2c1 [givinostat]
Outline: as §1

[10] = compound: CCN(CCCOc1ccc2c(Nc3cc(CC(=O)Nc4cccc(F)c4)[nH]n3)ncnc2c1)CCOP(=O)(O)O [barasertib]
Outline: as §1

Measured: log2 fold change

PNPT1 (UniProt Q8TCS8)
inactive: [1] 0.02 | [2] -0.114 | [3] 0.031 | [4] 0.041 | [5] -0.034 | [6] 0.055 | [7] 0.088 | [8] 0.034 | [9] 0.047 | [10] 0.051

PNO1 (UniProt Q9NRX1)
inactive: [1] 0.057 | [2] -0.027 | [3] -0.009 | [4] -0.035 | [5] 0.202 | [6] 0.052 | [7] 0.044 | [8] 0.407 | [9] 0.131 | [10] -0.041

POLR2G (UniProt P62487)
inactive: [1] 0.025 | [2] -0.033 | [3] 0.059 | [4] 0.057 | [5] -0.015 | [6] -0.022 | [7] 0.009 | [8] -0.038 | [9] -0.094 | [10] -0.019

PLEKHF2 (UniProt Q9H8W4)
inactive: [1] 0.002 | [2] -0.007 | [3] 0.063 | [4] 0.075 | [5] -0.017 | [6] -0.073 | [7] 0.043 | [8] 0.056 | [9] 0.036 | [10] 0.044

PMM2 (UniProt O15305)
inactive: [1] -0.102 | [2] 0.021 | [3] -0.014 | [4] -0.009 | [5] -0.124 | [6] -0.04 | [7] -0.009 | [8] -0.055 | [9] 0.015 | [10] 0.003

PPIP5K2 (UniProt O43314)
inactive: [1] 0.01 | [2] 0.014 | [3] 0.013 | [4] 0.032 | [5] -0.034 | [6] -0.006 | [7] -0.006 | [8] -0.012 | [9] -0.048 | [10] 0.014

PPIF (UniProt P30405)
inactive: [1] -0.006 | [2] 0.008 | [3] -0.019 | [4] -0.097 | [5] 0.001 | [6] -0.028 | [7] -0.027 | [8] -0.04 | [9] 0.046 | [10] 0.005

PLS3 (UniProt P13797)
inactive: [1] -0.038 | [2] 0.009 | [3] 0.031 | [4] -0.038 | [5] -0.054 | [6] -0.011 | [7] 0.032 | [8] -0.077 | [9] 0.035 | [10] -0.01

PPIB (UniProt P23284)
inactive: [1] 0 | [2] 0.011 | [3] -0.048 | [4] -0.045 | [5] 0.055 | [6] -0.034 | [7] -0.058 | [8] 0.09 | [9] -0.025 | [10] -0.01

PPM1A isoform 3 (UniProt P35813)
inactive: [1] 0.013 | [2] 0.01 | [3] -0.012 | [4] -0.035 | [5] -0.019 | [6] 0.007 | [7] -0.021 | [8] 0.023 | [9] -0.007 | [10] 0.074

POLA1 (UniProt P09884)
inactive: [1] -0.001 | [2] -0.029 | [3] -0.003 | [4] 0.052 | [5] -0.064 | [6] 0.064 | [7] 0.053 | [8] 0.024 | [9] 0.093 | [10] 0.098

POSTN (UniProt Q15063)
inactive: [1] -0.129 | [2] 0.063 | [3] 0.074 | [4] 0.163 | [5] -0.002 | [6] 0.163 | [7] 0.008 | [8] -0.273 | [9] -0.083 | [10] 0.069

POTEI (UniProt P0CG38)
inactive: [1] 0.056 | [2] -0.035 | [3] -0.012 | [4] 0.052 | [5] -0.071 | [6] 0.08 | [7] 0.014 | [8] -0.072 | [9] -0.018 | [10] 0

POP7 (UniProt O75817)
inactive: [1] 0.07 | [2] 0.012 | [3] 0 | [4] -0.01 | [5] 0.032 | [6] -0.08 | [7] -0.02 | [8] -0.012 | [9] 0.115 | [10] 0.019

POLR1C (UniProt O15160)
inactive: [1] -0.004 | [2] 0.052 | [3] -0.03 | [4] -0.048 | [5] 0.18 | [6] 0 | [7] 0.12 | [8] 0.064 | [9] 0.09 | [10] 0.031

POMP (UniProt Q9Y244)
inactive: [1] 0.024 | [2] 0.075 | [3] -0.069 | [4] 0.076 | [5] 0.145 | [6] -0.023 | [7] -0.023 | [8] 0.016 | [9] -0.045 | [10] 0.054

POLR2I (UniProt P36954)
inactive: [1] -0.063 | [2] -0.011 | [3] -0.015 | [4] 0.001 | [5] 0.055 | [6] -0.086 | [7] -0.081 | [8] -0.057 | [9] -0.151 | [10] 0.085

POLE3 (UniProt Q9NRF9)
inactive: [1] -0.022 | [2] 0.033 | [3] -0.042 | [4] -0.014 | [5] -0.05 | [6] -0.003 | [7] 0 | [8] -0.022 | [9] -0.027 | [10] 0.008

PPAT (UniProt Q06203)
inactive: [1] -0.015 | [2] -0.01 | [3] -0.024 | [4] 0.007 | [5] -0.041 | [6] -0.015 | [7] -0.015 | [8] 0.031 | [9] -0.015 | [10] -0.01

POLR2K (UniProt P53803)
inactive: [1] -0.036 | [2] 0.065 | [3] 0.056 | [4] 0.024 | [5] -0.162 | [6] -0.001 | [7] -0.024 | [8] 0.075 | [9] -0.137 | [10] 0.023

POGLUT1 (UniProt Q8NBL1)
inactive: [1] -0.063 | [2] -0.027 | [3] -0.081 | [4] -0.024 | [5] -0.025 | [6] -0.139 | [7] -0.034 | [8] 0.043 | [9] 0.052 | [10] -0.022

POLD3 (UniProt Q15054)
inactive: [1] -0.131 | [2] -0.055 | [3] 0.03 | [4] 0.007 | [5] -0.115 | [6] 0.082 | [7] 0.049 | [8] 0.065 | [9] 0.018 | [10] 0.006

PLOD1 isoform 2 (UniProt Q02809)
inactive: [1] 0.027 | [2] -0.041 | [3] -0.041 | [4] -0.11 | [5] 0.116 | [6] -0.034 | [7] -0.064 | [8] 0.047 | [9] 0.031 | [10] -0.036

PPA2 (UniProt Q9H2U2)
inactive: [1] 0.011 | [2] 0 | [3] 0.011 | [4] 0.018 | [5] -0.045 | [6] -0.031 | [7] -0.02 | [8] -0.03 | [9] -0.01 | [10] 0

POR (UniProt P16435)
inactive: [1] 0.033 | [2] 0 | [3] 0.003 | [4] -0.001 | [5] -0.048 | [6] 0.029 | [7] 0.008 | [8] 0.027 | [9] 0.003 | [10] 0.001

POGLUT2 (UniProt Q6UW63)
inactive: [1] -0.035 | [2] -0.001 | [3] -0.052 | [4] -0.066 | [5] 0.133 | [6] -0.098 | [7] -0.026 | [8] 0.019 | [9] 0.025 | [10] 0.001

Reprinted at random: 2 records from the list, in no set order.
POLA1 (UniProt P09884)
inactive: [1] -0.001 | [2] -0.029 | [3] -0.003 | [4] 0.052 | [5] -0.064 | [6] 0.064 | [7] 0.053 | [8] 0.024 | [9] 0.093 | [10] 0.098

PPIB (UniProt P23284)
inactive: [1] 0 | [2] 0.011 | [3] -0.048 | [4] -0.045 | [5] 0.055 | [6] -0.034 | [7] -0.058 | [8] 0.09 | [9] -0.025 | [10] -0.01

Carrying on:

POLD2 (UniProt P49005)
inactive: [1] 0.036 | [2] 0.017 | [3] 0.142 | [4] 0.04 | [5] 0.055 | [6] 0.021 | [7] 0.004 | [8] -0.056 | [9] 0.027 | [10] 0.058
